# Data taken from patent US20130178488A1, “TRICYCLIC COMPOUNDS, PREPARATION METHODS, AND THEIR USES” (priority 2011, published 2013).
# Some of these results come from one statement about several compounds together.
# Biological target: T1, recombinant human Lp-PLA2 (Homo sapiens, UniProt Q13093)
# T1 sequence (Q13093 22-441): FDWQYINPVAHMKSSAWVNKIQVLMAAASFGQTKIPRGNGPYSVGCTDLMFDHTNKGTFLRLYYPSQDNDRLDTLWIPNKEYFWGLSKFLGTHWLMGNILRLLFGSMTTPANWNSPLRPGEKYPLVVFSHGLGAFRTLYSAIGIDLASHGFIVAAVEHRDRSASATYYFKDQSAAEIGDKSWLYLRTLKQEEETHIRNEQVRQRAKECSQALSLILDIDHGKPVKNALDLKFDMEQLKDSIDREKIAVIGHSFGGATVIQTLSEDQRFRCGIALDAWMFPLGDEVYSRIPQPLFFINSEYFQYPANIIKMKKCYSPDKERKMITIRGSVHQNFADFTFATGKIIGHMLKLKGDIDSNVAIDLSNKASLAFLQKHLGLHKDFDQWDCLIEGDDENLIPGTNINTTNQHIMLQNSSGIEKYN
# Experiment: Recombinant human Lp-PLA2 assay (rhLp-PLA2, PED6 assay)
# Format: biochemical
# Conditions: thresholds stated in text, upper limit of the assay is 9.3
SMILES,pIC50 values in the PED6 assay,pIC50 values in the PED6 assay (listed as example 133),pIC50 values in the PED6 assay (listed as example 88)
"O=c1nc(OCCc2ccc(Oc3ccc(Cl)c(C(F)(F)F)c3)cc2)cc2n1CCc1cc(F)ccc1-2 [Example 90, 2-(4-(4-chloro-3-(trifluoromethyl)phenoxy)phenethoxy)-9-fluoro-6,7-dihydro-4H-pyri-mido[6,1-a]isoquinolin-4-one]",at least 8.0,,
"Cc1ccc2c(c1)CCn1c-2cc(OCc2ccc(Oc3ccc(Cl)c(C(F)(F)F)c3)cn2)nc1=O [Example 124, 2-((5-(4-chloro-3-(trifluoromethyl)phenoxy)pyridin-2-yl)methoxy)-9-methyl-6,7-dihydro-4H-pyrimido[6,1-a]isoquinolin-4-one]",at least 8.0,,
"COc1ccc2c(c1)CCn1c-2cc(OCc2ccc(Oc3ccc(C(F)(F)F)nc3)c(Cl)c2)nc1=O [Example E67, 2-((3-chloro-4-((6-(trifluoromethyl)pyridin-3-yl)oxy)benzyl)oxy)-9-methoxy-6,7-dihydro-4H-pyrimido[6,1-a]isoquinolin-4-one]",at least 8.0,,
"N#Cc1cc(COc2cc3n(c(=O)n2)CCc2cc(Cl)ccc2-3)ccc1Oc1cccc(C(F)(F)F)c1 [Example 133, 5-(((9-chloro-4-oxo-6,7-dihydro-4H-pyrimido[6,1-a]isoquinolin-2-yl)oxy)methyl)-2-(3-(trifluoromethyl)phenoxy)benzonitrile]",at least 9.0,at least 8.0,
"O=c1nc(OCc2ccc(Oc3ccc(F)c(C(F)(F)F)c3)cn2)cc2n1CCc1ccccc1-2 [Example 106, 2-((5-(4-fluoro-3-(trifluoromethyl)phenoxy)pyridin-2-yl)methoxy)-6,7-dihydro-4H-pyri-mido[6,1-a]isoquinolin-4-one]",at least 8.0,,
"COc1ccc2c(c1)CCn1c-2cc(OCCc2ccc(Oc3ccc(F)c(C(F)(F)F)c3)cn2)nc1=O [Example E60, 2-(2-(5-(4-fluoro-3-(trifluoromethyl)phenoxy)pyridin-2-yl)ethoxy)-9-methoxy-6,7-dihydro-4H-pyrimido[6,1-a]isoquinolin-4-one]",at least 8.0,,
"COc1ccc2c(c1)CCn1c-2cc(OCc2ccc(Oc3ccc(F)c(C(F)(F)F)c3)cn2)nc1=O [Example 74, 2-((5-(4-fluoro-3-(trifluoromethyl)phenoxy)pyridin-2-yl)methoxy)-9-methoxy-6,7-dihydro-4H-pyrimido-[6,1-a]isoquinolin-4-one]",at least 8.0,,
"COc1ccc2c(c1)CCn1c-2cc(OCc2ccc(Oc3ccc(F)c(C(F)(F)F)c3)c(C#N)c2)nc1=O [Example E16, 2-{[4-Fluoro-3-(trifluoromethyl)phenyl]oxy}-5-({[9-(methyloxy)-4-oxo-6,7-dihydro-4H-pyrimido[6,1-a]isoquinolin-2-yl]oxy}methyl)benzonitri-le]",at least 8.0,,
"N#Cc1cc(COc2cc3n(c(=O)n2)CCc2ccccc2-3)ccc1Oc1ccc(Cl)c(C(F)(F)F)c1 [Example 88, 2-(4-chloro-3-(trifluoromethyl)phenoxy)-5-(((4-oxo-6,7-dihydro-4H-pyrimido[6,1-a]isoquinolin-2-yl)oxy)methyl)benzonitrile]",at least 9.0,,at least 8.0
"COc1ccc2c(c1)CCn1c-2cc(OCc2ccc(Oc3cccc(C(F)(F)F)c3)c(F)c2)nc1=O [Example E40, 2-((3-fluoro-4-(3-(trifluoromethyl)phenoxy)benzyl)oxy)-9-methoxy-6,7-dihydro-4H-pyrimido[6,1-a]isoquinolin-4-one]",at least 8.0,,
